Laboratory results: doi:10.1101/560391 (bioRxiv, 2019)
Where two headings read alike, the source gives them in different places. These are yes or no findings as the source states them, for the method shown. Some entries that bind do so weakly or less than the wild type. For part of these data: Sequences can lack the tags named with a protein. Each block holds one molecule with its values, some of them ahead of it.

Columns and labels:
[1] = target: dCENP-A-GFP-LacI (Drosophila) (UniProt Q9V6Q2); assay: LacI/LacO tethering and co-recruitment in cells
[2] = target: dH3^L1α2 chimera, GFP-LacI fusion (Drosophila) (UniProt P02299+Q9V6Q2); assay: LacI/LacO tethering and co-recruitment in cells
[3] = target: dH3^L1α2+C chimera, GFP-LacI fusion (Drosophila) (UniProt P02299+Q9V6Q2); assay: LacI/LacO tethering and co-recruitment in cells
[4] = target: T1, GFP-LacI-dCENP-C (Drosophila) (UniProt Q9VHP9); assay: LacI/LacO tethering and co-recruitment in cells
T1 sequence: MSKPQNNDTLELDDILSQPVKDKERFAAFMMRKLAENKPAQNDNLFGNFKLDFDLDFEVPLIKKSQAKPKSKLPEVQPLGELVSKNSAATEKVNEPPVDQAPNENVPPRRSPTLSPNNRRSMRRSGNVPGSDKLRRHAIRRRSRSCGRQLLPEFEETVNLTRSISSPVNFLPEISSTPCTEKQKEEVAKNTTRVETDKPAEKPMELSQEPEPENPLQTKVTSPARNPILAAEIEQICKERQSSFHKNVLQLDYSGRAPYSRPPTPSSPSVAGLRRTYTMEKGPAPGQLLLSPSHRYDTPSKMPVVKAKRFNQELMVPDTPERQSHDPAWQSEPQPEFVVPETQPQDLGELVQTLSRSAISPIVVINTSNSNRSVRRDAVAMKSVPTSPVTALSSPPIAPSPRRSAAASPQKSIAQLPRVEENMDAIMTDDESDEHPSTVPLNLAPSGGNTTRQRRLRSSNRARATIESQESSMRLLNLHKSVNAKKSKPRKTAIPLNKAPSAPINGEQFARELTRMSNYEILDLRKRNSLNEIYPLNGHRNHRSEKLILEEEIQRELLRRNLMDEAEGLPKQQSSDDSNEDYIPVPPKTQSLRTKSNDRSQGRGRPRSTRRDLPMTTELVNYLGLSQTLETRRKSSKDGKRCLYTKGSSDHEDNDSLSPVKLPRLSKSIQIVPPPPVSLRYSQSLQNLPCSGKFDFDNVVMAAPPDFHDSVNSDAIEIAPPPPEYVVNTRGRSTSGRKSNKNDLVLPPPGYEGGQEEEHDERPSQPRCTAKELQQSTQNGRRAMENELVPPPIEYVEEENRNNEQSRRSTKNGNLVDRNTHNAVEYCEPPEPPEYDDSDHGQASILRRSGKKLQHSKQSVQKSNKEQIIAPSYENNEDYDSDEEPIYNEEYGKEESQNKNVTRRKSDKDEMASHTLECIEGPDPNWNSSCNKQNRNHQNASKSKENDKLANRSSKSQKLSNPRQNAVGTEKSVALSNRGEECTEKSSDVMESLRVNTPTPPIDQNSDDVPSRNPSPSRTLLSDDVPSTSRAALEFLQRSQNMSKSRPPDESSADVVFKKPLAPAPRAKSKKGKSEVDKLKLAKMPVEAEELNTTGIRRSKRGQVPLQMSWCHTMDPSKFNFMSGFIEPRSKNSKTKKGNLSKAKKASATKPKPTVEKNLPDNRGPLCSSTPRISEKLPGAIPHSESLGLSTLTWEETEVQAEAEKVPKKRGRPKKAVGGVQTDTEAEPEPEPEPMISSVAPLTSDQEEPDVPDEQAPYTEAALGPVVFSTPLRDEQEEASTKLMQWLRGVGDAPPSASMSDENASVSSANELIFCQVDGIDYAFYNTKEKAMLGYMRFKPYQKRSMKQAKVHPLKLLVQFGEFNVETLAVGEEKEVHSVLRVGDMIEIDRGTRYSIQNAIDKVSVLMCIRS

[5] = target: CAL1(1-160)-GFP-LacIw (Drosophila) (UniProt Q9VEN2); assay: LacI/LacO tethering and co-recruitment in cells
[6] = target: CAL1(1-407)-GFP-LacIw (Drosophila) (UniProt Q9VEN2); assay: LacI/LacO tethering and co-recruitment in cells
[7] = target: T2, recombinant CAL1(1-160) (Drosophila), Q9VEN2; assay: SEC-MALS; conditions: remark: other sources report otherwise
T2 chain: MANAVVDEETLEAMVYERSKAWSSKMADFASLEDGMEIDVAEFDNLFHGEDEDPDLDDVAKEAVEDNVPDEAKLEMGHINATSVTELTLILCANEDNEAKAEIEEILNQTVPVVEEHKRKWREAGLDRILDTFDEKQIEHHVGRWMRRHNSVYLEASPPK

[8] = target: dCENP-A-GFP-LacI (Drosophila) (UniProt Q9V6Q2); assay: LacI/LacO tethering and co-recruitment in cells; remark: listed apart in the source
[9] = target: CAL1-GFP-LacI (Drosophila) (UniProt Q9VEN2); assay: LacI/LacO tethering and co-recruitment in cells
[10] = target: GFP-LacI-CAL1 (Drosophila) (UniProt Q9VEN2); assay: LacI/LacO tethering and co-recruitment in cells
[11] = target: T3, GFP-LacI-dCENP-C (Drosophila), Q9VHP9; assay: LacI/LacO tethering and co-recruitment in cells; conditions: remark: other sources report otherwise
T3 chain: T1 sequence

[12] = target: T4, dCENP-A (Drosophila), Q9V6Q2; assay: LacI/LacO tethering and co-recruitment in cells; conditions: remark: other sources report otherwise
T4 chain: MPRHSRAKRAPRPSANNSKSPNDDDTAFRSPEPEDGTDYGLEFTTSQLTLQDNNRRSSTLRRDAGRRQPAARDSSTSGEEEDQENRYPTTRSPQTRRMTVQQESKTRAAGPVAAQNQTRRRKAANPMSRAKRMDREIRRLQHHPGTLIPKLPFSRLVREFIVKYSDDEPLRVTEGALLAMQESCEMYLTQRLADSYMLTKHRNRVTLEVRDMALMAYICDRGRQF

Molecule: CAL1-V5 (from UniProt Q9VEN2 1-979)
binding [1]: binds | binding [2]: binds weakly | binding [3]: binds | binding [4]: binds

B2: HA-dCENP-C (protein, UniProt Q9VHP9 1-1411)
chain: T1 sequence
binding [8]: binds weakly | binding [9]: binds weakly | binding [10]: binds weakly

Further lines, results first:

binding [5]: binds | binding [6]: binds
Molecule: dCENP-A (from UniProt Q9V6Q2 1-225)

binding [7]: no binding
B1: recombinant CAL1(1-160), Q9VEN2 1-160 (domain or fragment)
chain: T2 chain

binding [11]: binds | binding [12]: binds
B3: HA-dCENP-C, Q9VHP9 1-1411 (protein)
chain: T1 sequence
